# Laboratory results: PubChem BioAssay AID1259254 (NCATS, 2017)
# Assay: 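Gene knock-downs that lead to re-replication, shown by excess G2 DNA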 (primary screen)
# Cell system: human HCT116 colorectal cancer cells
# Reagent: single siRNA against human genes
# Time to read-out: 3 days
# Measured: 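Nuclei stained with Hoechst and imaged; cell-cycle phase assigned by DNA content; G2 share scaled per plate, non-targeting siRNA 0%, GMNN siRNA 100%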
# Reading the numbers: G2 robust z-score and G2 cells, % of GMNN control: higher = more G2 cells, more excess DNA replication; raw share of cells in G2: higher = larger share of cells with G2 DNA content
# Rule for the call: 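An siRNA counts as active if its G2 robust z-score lies at least 5 MADs above the screen median; here such calls match roughly 38% of GMNN control or more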
# Shown is an unselected part of about 59,000 deposited reagents. Of all reagents, about 1,550 (2.6%) were called active. 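G2 share is only a proxy for re-replication; each gene was hit by three separate siRNAs, and active genes were retested.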 Raw values are not corrected between plates. The numbers tell different reagents against one gene apart. Reagent sequences are not shown. The record does not give: the amount of reagent.
The first 4 entries, ahead of the listing:
Gene,siRNA no.,G2 robust z-score,"G2 cells, % of GMNN control",raw share of cells in G2 (%),Outcome
FRMPD1 (FERM and PDZ domain containing 1),1,6.63,49.6,24.4,active
FRMPD1 (FERM and PDZ domain containing 1),2,0.215,4.48,5.99,inactive
FRMPD1 (FERM and PDZ domain containing 1),3,-0.05,2.62,4.15,inactive
HNRNPA1P35 (heterogeneous nuclear ribonucleoprotein A1 pseudogene 35),1,0.272,4.88,5.04,inactive

The listing, from the first entry:
Gene,siRNA no.,G2 robust z-score,"G2 cells, % of GMNN control",raw share of cells in G2 (%),Outcome
FRMPD1 (FERM and PDZ domain containing 1),1,6.63,49.6,24.4,active
FRMPD1 (FERM and PDZ domain containing 1),2,0.215,4.48,5.99,inactive
FRMPD1 (FERM and PDZ domain containing 1),3,-0.05,2.62,4.15,inactive
HNRNPA1P35 (heterogeneous nuclear ribonucleoprotein A1 pseudogene 35),1,0.272,4.88,5.04,inactive
HNRNPA1P35 (heterogeneous nuclear ribonucleoprotein A1 pseudogene 35),2,-0.052,2.6,3.87,inactive
HNRNPA1P35 (heterogeneous nuclear ribonucleoprotein A1 pseudogene 35),3,-0.685,-1.85,3.08,inactive
ALDH2 (aldehyde dehydrogenase 2 family member),1,-0.0865,2.36,5.91,inactive
ALDH2 (aldehyde dehydrogenase 2 family member),2,-0.775,-2.49,3.06,inactive
ALDH2 (aldehyde dehydrogenase 2 family member),3,0.272,4.88,6.38,inactive
LOC644893 (MAGE family member E1 pseudogene),1,0.285,4.97,5.53,inactive
LOC644893 (MAGE family member E1 pseudogene),2,1.41,12.9,7.92,inactive
LOC644893 (MAGE family member E1 pseudogene),3,-0.623,-1.41,2.73,inactive
SMIM21 (small integral membrane protein 21),1,-1.19,-5.38,1.68,inactive
SMIM21 (small integral membrane protein 21),2,-0.537,-0.807,2.73,inactive
SMIM21 (small integral membrane protein 21),3,-1.09,-4.71,1.84,inactive
TAGAP (T cell activation RhoGTPase activating protein),1,0.00175,2.98,5.61,inactive
TAGAP (T cell activation RhoGTPase activating protein),2,0.682,7.76,8.3,inactive
TAGAP (T cell activation RhoGTPase activating protein),3,3.05,24.5,17,inactive
H4C2 (H4 clustered histone 2),1,0.213,4.46,7.11,inactive
H4C2 (H4 clustered histone 2),2,-0.339,0.583,4.13,inactive
H4C2 (H4 clustered histone 2),3,-0.35,0.508,3.53,inactive
BICRAL (BICRA like chromatin remodeling complex associated protein),1,0.656,7.58,7.26,inactive
BICRAL (BICRA like chromatin remodeling complex associated protein),2,0.499,6.48,6.74,inactive
BICRAL (BICRA like chromatin remodeling complex associated protein),3,0.278,4.93,5.02,inactive
KIF25 (kinesin family member 25),1,4.29,33.1,17.1,inactive
KIF25 (kinesin family member 25),2,1.16,11.1,9.91,inactive
KIF25 (kinesin family member 25),3,-0.862,-3.1,3.07,inactive
SHBG (sex hormone binding globulin),1,1.37,12.6,8.86,inactive
SHBG (sex hormone binding globulin),2,0.599,7.19,6.34,inactive
SHBG (sex hormone binding globulin),3,5.6,42.4,19.9,active
AIM2 (absent in melanoma 2),1,0.198,4.36,4.98,inactive
AIM2 (absent in melanoma 2),2,0.0891,3.59,7.59,inactive
AIM2 (absent in melanoma 2),3,0.071,3.47,4.79,inactive
CHRND (cholinergic receptor nicotinic delta subunit),1,0.918,9.42,8.72,inactive
CHRND (cholinergic receptor nicotinic delta subunit),2,-1.19,-5.43,2.95,inactive
CHRND (cholinergic receptor nicotinic delta subunit),3,-0.833,-2.89,3.25,inactive
SOX3 (SRY-box transcription factor 3),1,0.824,8.77,8.63,inactive
SOX3 (SRY-box transcription factor 3),2,0.674,7.71,7.19,inactive
SOX3 (SRY-box transcription factor 3),3,1.18,11.3,7.7,inactive
IGF1 (insulin like growth factor 1),1,0.035,3.21,6.21,inactive
IGF1 (insulin like growth factor 1),2,0.514,6.59,8.19,inactive
IGF1 (insulin like growth factor 1),3,-0.268,1.08,4.6,inactive
HBM (hemoglobin subunit mu),1,-0.0387,2.69,6.71,inactive
HBM (hemoglobin subunit mu),2,-0.949,-3.71,2.84,inactive
HBM (hemoglobin subunit mu),3,2.35,19.5,12.1,inactive
KRT73 (keratin 73),1,-1.25,-5.85,1.98,inactive
KRT73 (keratin 73),2,-0.534,-0.791,2.91,inactive
KRT73 (keratin 73),3,-0.766,-2.42,3.21,inactive
